Data on one compound can be found in patent publication US5268308A (priority 1989, dated 1993).

This data set has as its system Pyridostigmine Antibody. Kind of data set: Sensitivity and useful range of the pyridostigmine RIA (standard curve). The arrangement: species or system rabbit (male New Zealand white).

In the case of `CN(C)C(=O)Oc1ccc[n+](C)c1` [Pyridostigmine], the “upper end of useful range of the standard curve” value is recorded as “up to 10 ng per assay tube”. For the same compound, the “lowest detectable quantity of pyridostigmine” value (biological/body fluid) worked out at 250 pg per 0.1 ml.
